Data reported in US20260130928A1, “COMBINATION OF AKR1C3 ACTIVATED ANTICANCER PRODRUG COMPOUND AND ANALGESIC DRUG FOR TREATING CANCER PATIENTS ACCOMPANIED BY PAIN” (ASCENTAWITS PHARMACEUTICALS, LTD., priority 2022, published 2026).
For part of these data: At least one read-out could not be matched to a standard name with certainty. For part of these data: For at least one compound, name, drawing or mass did not settle the structure.

How the values were obtained:
[1] = at the end of drug infusion; cited from earlier work
[2] = system: H460 cell line; experiment: In vitro cell proliferation inhibition with the drug combination (CTG method); format: cell-based, human; conditions: combined with AST-3424
Experimental: • a) H460 cells (human non-small lung cancer cells, AKR1C3 enzyme highly expressed) were cultured in RPMI-1640 medium, added with 10% FBS and 1% double antibody, and placed at 37° C. and 5% CO2 for culturing.
• a) The cells were routinely cultured until the cell saturation was 80%-90%, and when the required quantity was reached, the cells were collected. • b) The cells were resuspended with the corresponding medium and cell counts were performed to prepare a cell suspension with appropriate density. • c) The cell suspension was added to a 96-well plate with 100 μL per well, and the cell density was 2,000 cells per well. • d) The cells were incubated overnight in an incubator at 37° C. with 5% CO2. […]
1.1.6 Detecting with CTG Method • a) The cell plate to be tested was placed at room temperature to equilibrium for 30 minutes, and 100 μL of culture medium was discarded from each well. • b) 25 μL CTG reagent (CelltiterGlo kit) was added to each well. The plate was placed on a fast shaker to shake for 2 minutes, and then placed at room temperature away from light for 30 minutes. • c) The chemiluminescent signal value was read with multifunctional microplate reader at reading time of 1000 ms.
IC50 was calculated with GraphPad Prism 5 software, and the IC50 (half maximal inhibitory concentration) of the compound was obtained using the following nonlinear fitting formula: […]

[3] = system: AKR1C3; conditions: reported in literature; cited from earlier work

Compound | Time at which Cmax generally occurred [1] | effect of the combination on the cell proliferation inhibitory activity of AST-3424 [2] | AKR1C3 inhibitory activity [3]
C[C@H](OP(=O)(N1CC1)N1CC1)c1ccc([N+](=O)[O-])c(Oc2cccc(C(=O)N(C)C)c2)c1 [AST-3424] | 30 min |  | 
Cc1ccc(-c2cc(C(F)(F)F)nn2-c2ccc(S(N)(=O)=O)cc2)cc1 [Celecoxib] |  | almost no effect | have AKR1C3 inhibitory activity
